These are yes or no findings as the source states them, for the method shown. In cells and extracts the contact can be indirect. These calls come from enrichment with a bait or labelling near it, and not all partners need be listed. Blank lines part the entries; values can stand above or below the molecule they belong to.
Target: FLAG-tagged TRIM50 (UniProt Q86XT4)
Test: affinity purification with mass spectrometry; FLAG-TRIM50#3 and FLAG#3 lysates (PBS, 0.5% NP-40) on M2 anti-FLAG agarose, washed with lysis buffer with 150 mM NaCl, eluted with FLAG peptide, SDS-PAGE bands, nanoLC-MS/MS

The chains behind the UniProt entries cited, without tags or fusion partners. Residues count along the entry.
UniProt Q86XT4: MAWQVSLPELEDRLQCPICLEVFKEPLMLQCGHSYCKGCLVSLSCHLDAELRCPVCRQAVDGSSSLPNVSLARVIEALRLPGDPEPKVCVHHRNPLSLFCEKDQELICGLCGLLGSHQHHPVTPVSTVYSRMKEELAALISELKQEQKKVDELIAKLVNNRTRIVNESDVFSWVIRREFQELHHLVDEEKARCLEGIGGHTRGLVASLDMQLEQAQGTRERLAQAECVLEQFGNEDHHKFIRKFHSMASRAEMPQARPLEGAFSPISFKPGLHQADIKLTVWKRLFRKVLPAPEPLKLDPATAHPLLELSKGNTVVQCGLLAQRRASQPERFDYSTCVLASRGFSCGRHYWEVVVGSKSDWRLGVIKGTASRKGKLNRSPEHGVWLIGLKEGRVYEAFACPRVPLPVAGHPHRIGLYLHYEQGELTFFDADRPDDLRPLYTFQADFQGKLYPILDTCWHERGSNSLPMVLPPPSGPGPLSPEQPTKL
UniProt P14625, residues 22-803: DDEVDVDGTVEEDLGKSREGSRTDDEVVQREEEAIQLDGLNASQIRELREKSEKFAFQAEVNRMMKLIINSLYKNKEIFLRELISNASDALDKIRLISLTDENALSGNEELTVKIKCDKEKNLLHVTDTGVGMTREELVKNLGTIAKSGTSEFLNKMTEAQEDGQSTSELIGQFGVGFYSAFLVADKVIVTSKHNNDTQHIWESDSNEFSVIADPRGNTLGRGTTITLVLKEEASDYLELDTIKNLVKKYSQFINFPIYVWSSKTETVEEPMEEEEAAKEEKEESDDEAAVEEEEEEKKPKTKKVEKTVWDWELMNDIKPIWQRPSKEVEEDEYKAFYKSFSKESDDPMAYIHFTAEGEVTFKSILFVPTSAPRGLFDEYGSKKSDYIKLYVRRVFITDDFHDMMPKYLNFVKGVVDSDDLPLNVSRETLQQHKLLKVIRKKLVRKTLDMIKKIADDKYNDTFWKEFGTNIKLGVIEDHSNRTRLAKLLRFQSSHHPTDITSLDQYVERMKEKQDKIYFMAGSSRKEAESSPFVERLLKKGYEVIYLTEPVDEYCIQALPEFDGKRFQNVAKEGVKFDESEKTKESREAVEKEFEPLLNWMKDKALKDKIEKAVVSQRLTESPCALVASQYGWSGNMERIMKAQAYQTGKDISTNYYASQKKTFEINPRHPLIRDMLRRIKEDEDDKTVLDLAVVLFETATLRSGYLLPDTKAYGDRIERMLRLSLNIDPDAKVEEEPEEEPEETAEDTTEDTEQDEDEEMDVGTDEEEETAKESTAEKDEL
UniProt P63104: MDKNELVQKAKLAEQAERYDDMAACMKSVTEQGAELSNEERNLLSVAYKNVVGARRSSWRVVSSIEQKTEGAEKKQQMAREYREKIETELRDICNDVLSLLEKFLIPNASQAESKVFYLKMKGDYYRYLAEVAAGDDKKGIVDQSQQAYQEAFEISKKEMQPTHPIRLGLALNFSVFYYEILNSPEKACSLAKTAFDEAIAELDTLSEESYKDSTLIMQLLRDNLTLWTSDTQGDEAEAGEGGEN
UniProt P23284, residues 34-216: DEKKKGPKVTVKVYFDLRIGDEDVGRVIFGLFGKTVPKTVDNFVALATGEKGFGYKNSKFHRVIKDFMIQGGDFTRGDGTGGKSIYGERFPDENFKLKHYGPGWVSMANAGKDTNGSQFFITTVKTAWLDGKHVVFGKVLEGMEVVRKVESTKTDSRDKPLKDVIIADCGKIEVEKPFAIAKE

Molecule: HSP90B1 (from UniProt P14625 22-803)
binding: binds

B1: 14-3-3 eta (protein, UniProt Q04917 1-246)
chain: MGDREQLLQRARLAEQAERYDDMASAMKAVTELNEPLSNEDRNLLSVAYKNVVGARRSSWRVISSIEQKTMADGNEKKLEKVKAYREKIEKELETVCNDVLSLLDKFLIKNCNDFQYESKVFYLKMKGDYYRYLAEVASGEKKNSVVEASEAAYKEAFEISKEQMQPTHPIRLGLALNFSVFYYEIQNAPEQACLLAKQAFDDAIAELDTLNEDSYKDSTLIMQLLRDNLTLWTSDQQDEEAGEGN
binding: binds

B2: Serpin H1 (protein, UniProt P50454 19-418)
chain: AEVKKPAAAAAPGTAEKLSPKAATLAERSAGLAFSLYQAMAKDQAVENILVSPVVVASSLGLVSLGGKATTASQAKAVLSAEQLRDEEVHAGLGELLRSLSNSTARNVTWKLGSRLYGPSSVSFADDFVRSSKQHYNCEHSKINFRDKRSALQSINEWAAQTTDGKLPEVTKDVERTDGALLVNAMFFKPHWDEKFHHKMVDNRGFMVTRSYTVGVMMMHRTGLYNYYDDEKEKLQIVEMPLAHKLSSLIILMPHHVEPLERLEKLLTKEQLKIWMGKMQKKAVAISLPKGVVEVTHDLQKHLAGLGLTEAIDKNKADLSRMSGKKDLYLASVFHATAFELDTDGNPFDQDIYGREELRSPKLFYADHPFIFLVRDTQSGSLLFIGRLVRPKGDKMRDEL
binding: binds

Continued, values first:

binding: binds
Molecule: 14-3-3 zeta (from UniProt P63104 1-245)

binding: binds
Molecule: PPIB (from UniProt P23284 34-216)

binding: binds
Molecule: p62 (Sequestosome 1/p62) (from UniProt Q13501 1-440)

— article PMC3392214
